In paper PMC8429728, “TNK1 is a ubiquitin-binding and 14-3-3-regulated kinase that can be targeted to block tumor growth” (Nature Communications, 2021):
Results are given in words; binding and its absence hold for the method and conditions named.

Biological target: T1, Biotin-(4xPEG)-… (human)
T1 sequence (peptide, Biotin-(4xPEG) on the N-terminus): RNKGISRALESVLSLGP
Assay: BLI; biotin-tagged peptide loaded on streptavidin biosensors; 14-3-3ζ 50–1000 nM, 4 s association, 120 s dissociation; 0.001% TBST; 30 °C; Kd = Koff/Kon, mean of 3 runs; both purified

binding: no binding (tested: 1000 nM)
Substance: 14-3-3ζ (purified, from the GST-14-3-3ζ plasmid)
